Results deposited as PubChem BioAssay AID652272 (Drosophila RNAi Screening Center, 2013)
Screen: 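Genome-wide knock-down search for components of Hedgehog signalling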 (primary screen). Cell system: Drosophila clone 8 (Cl8) cells. Knock-down reagent: long dsRNA against Drosophila genes. Measurement: 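Firefly light from a Hedgehog-responsive ptc promoter reporter and Renilla reference light, both read on a plate reader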. Direction: firefly Hh reporter signal: higher = more ptc reporter light; Renilla reference signal: higher = more Renilla control light. Call rule: 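Called a hit if the two-replicate mean z-score lies below -2 or above +3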. Meaning of the calls: active = hit: reporter lowered or raised; inactive = not a hit.
In all, the deposit lists about 21,000 reagents; this is a random part of those that have a named target and a result. Of all reagents, 503 (2.4%) were called active. 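Raw plate light values, not normalised; calls rest on replicate z-scores that were not deposited; hits include reporter decreases as well as increases.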 Entries without a mark were called inactive. Names joined by + are all predicted targets of the reagent. Not given: the amount of reagent, the time to read-out.

CG34187 (retired record) + Trpm [DRSC05543]
- firefly Hh reporter signal, replicate 1: 2.31e5
- firefly Hh reporter signal, replicate 2: 3.49e5
- Renilla reference signal, replicate 1: 5600
- Renilla reference signal, replicate 2: 15895

CG3502 + CG9863 [DRSC04578]
- firefly Hh reporter signal, replicate 1: 71189
- firefly Hh reporter signal, replicate 2: 42880
- Renilla reference signal, replicate 1: 1462
- Renilla reference signal, replicate 2: 4448

CG32100 [DRSC09725]
- firefly Hh reporter signal, replicate 1: 40242
- firefly Hh reporter signal, replicate 2: 34304
- firefly Hh reporter signal, replicate 3: 47462
- Renilla reference signal, replicate 1: 3641
- Renilla reference signal, replicate 2: 3363

CG32100 [DRSC10331]
- firefly Hh reporter signal, replicate 1: 43302
- firefly Hh reporter signal, replicate 2: 35146
- firefly Hh reporter signal, replicate 3: 58864
- Renilla reference signal, replicate 1: 3664
- Renilla reference signal, replicate 2: 3669

Cyp313a1 [DRSC16624]
- firefly Hh reporter signal, replicate 1: 70279
- firefly Hh reporter signal, replicate 2: 1.16e5
- Renilla reference signal, replicate 1: 1946
- Renilla reference signal, replicate 2: 3553

Chchd3 [DRSC16981]
- firefly Hh reporter signal, replicate 1: 49877
- firefly Hh reporter signal, replicate 2: 68858
- Renilla reference signal, replicate 1: 2092
- Renilla reference signal, replicate 2: 2672

Entries listed so far whose gene name starts with C or c (6):
CG34187 (retired record) + Trpm [DRSC05543]
- firefly Hh reporter signal, replicate 1: 2.31e5
- firefly Hh reporter signal, replicate 2: 3.49e5
- Renilla reference signal, replicate 1: 5600
- Renilla reference signal, replicate 2: 15895

CG3502 + CG9863 [DRSC04578]
- firefly Hh reporter signal, replicate 1: 71189
- firefly Hh reporter signal, replicate 2: 42880
- Renilla reference signal, replicate 1: 1462
- Renilla reference signal, replicate 2: 4448

CG32100 [DRSC09725]
- firefly Hh reporter signal, replicate 1: 40242
- firefly Hh reporter signal, replicate 2: 34304
- firefly Hh reporter signal, replicate 3: 47462
- Renilla reference signal, replicate 1: 3641
- Renilla reference signal, replicate 2: 3363

CG32100 [DRSC10331]
- firefly Hh reporter signal, replicate 1: 43302
- firefly Hh reporter signal, replicate 2: 35146
- firefly Hh reporter signal, replicate 3: 58864
- Renilla reference signal, replicate 1: 3664
- Renilla reference signal, replicate 2: 3669

Cyp313a1 [DRSC16624]
- firefly Hh reporter signal, replicate 1: 70279
- firefly Hh reporter signal, replicate 2: 1.16e5
- Renilla reference signal, replicate 1: 1946
- Renilla reference signal, replicate 2: 3553

Chchd3 [DRSC16981]
- firefly Hh reporter signal, replicate 1: 49877
- firefly Hh reporter signal, replicate 2: 68858
- Renilla reference signal, replicate 1: 2092
- Renilla reference signal, replicate 2: 2672

The list goes on.
CG30031 + deltaTry + CG30025 + 1 more [DRSC21262]
- firefly Hh reporter signal, replicate 1: 1.08e5
- firefly Hh reporter signal, replicate 2: 1.98e5
- Renilla reference signal, replicate 1: 4108
- Renilla reference signal, replicate 2: 7795

pim [DRSC03591]
- firefly Hh reporter signal, replicate 1: 41239
- firefly Hh reporter signal, replicate 2: 26168
- Renilla reference signal, replicate 1: 1921
- Renilla reference signal, replicate 2: 1526

Cyp308a1 [DRSC20238]
- firefly Hh reporter signal, replicate 1: 77320
- firefly Hh reporter signal, replicate 2: 1.75e5
- Renilla reference signal, replicate 1: 1312
- Renilla reference signal, replicate 2: 7194

Vha68-1 [DRSC03470]
- firefly Hh reporter signal, replicate 1: 1.59e5
- firefly Hh reporter signal, replicate 2: 78980
- Renilla reference signal, replicate 1: 4834
- Renilla reference signal, replicate 2: 6921

ix [DRSC06325]
- firefly Hh reporter signal, replicate 1: 63042
- firefly Hh reporter signal, replicate 2: 52529
- Renilla reference signal, replicate 1: 1648
- Renilla reference signal, replicate 2: 3573

SIDL [DRSC16077]
- firefly Hh reporter signal, replicate 1: 1.11e5
- firefly Hh reporter signal, replicate 2: 85763
- Renilla reference signal, replicate 1: 4432
- Renilla reference signal, replicate 2: 3300
